Source: PubChem BioAssay AID2685 (National Center for Advancing Translational Sciences (NCATS), 2010)
This is one part of the list. These are further read-outs of the screen, such as a control signal, another cell line or another target. No call is given for them. Compounds called inactive in the main read-out are mostly missing here. Words in brackets tell the shape of the fitted curve; partial curves, single points and poor fits give uncertain potencies.

Test: qHTS Assay for Lipid Storage Modulators in Drosophila S3 Cells;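 as to cell number change: cells counted by Cell Tracker Red CMTPX staining in the red channel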
Conditions: BODIPY lipid droplet fluorescence, 18-24 h; for cell number change: measured here: cell count max response, cells fed with added oleic acid
Method in brief: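 Laser-scanning cytometry quantifies lipid droplet accumulation (500–530 nm total intensity; droplet/cell object ratio) in oleic acid-fed (400 uM added) Drosophila S3 cells treated with a concentration series. 20 uM Triacsin C defined 100% inhibition.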

[1] = measured here: cell number channel AC50, cells fed with added oleic acid
[2] = measured here: lipid fluorescence (Fed channel) AC50, cells fed with added oleic acid

SMILES | AC50 [1] | AC50 [2] | cell number change
COc1ccc(CCNc2oc(-c3ccccc3OC)nc2C#N)cc1OC | 0.92 µM [rising, full curve] | 1.16 µM [rising, full curve, poor fit] | 
O=C(CSc1cnc2ccccc2n1)c1ccc(F)cc1 | 6.51 µM [rising, partial curve] |  | 30.9%
CC(C)c1ccc(OCc2ccc(C(=O)N(C)C)o2)cc1 |  | 29.1 µM [falling, single point] | -19.3%
Cc1ccc(/C=N/NC(=O)c2nc3nc(C)cc(C)n3n2)cc1 |  |  | -5.41%
CCOc1ccc(OCC(=O)Nc2ccc(OC)cc2)cc1 | 1.46 µM [falling, partial curve] | 6.51 µM [falling, single point] | -11.7%
COc1ccc(N(C(=O)c2ccco2)S(=O)(=O)c2cccc([N+](=O)[O-])c2)cc1 |  | 0.651 µM [falling, full curve, poor fit] | 17.4%
CC(=O)NC(CC(=O)NNC(=O)C(C)Oc1ccccc1F)c1ccccc1 (configuration not stated) | 0.461 µM [falling, full curve, poor fit] |  | -28%
COc1ccc(C)cc1Nc1n[n+](-c2ccccc2)c(-c2ccc(N(C)C)cc2)s1 | 0.058 µM [rising, full curve, poor fit] |  | -10.4%
Cn1c(=O)c2ccccc2n(CC(=O)NCCC2=CCCCC2)c1=O |  | 0.00517 µM [rising, full curve, poor fit] | 10.8%
CC(C)(C)OC(=O)NCCc1nnc(SCC(N)=O)o1 |  |  | 0.296%
O=C(NC(=O)c1ccccc1)C1=C(N2CCCC2)COC1=O |  | 29.1 µM [falling, single point] | -4.33%
COC(=O)c1c(C)[nH]c(C(=O)CSc2ccc(Cl)cc2)c1C | 0.461 µM [rising, full curve] | 0.461 µM [rising, partial curve, poor fit] | 2.43%
Cc1ccc(F)cc1NC(=O)CSCc1nc2sc(C)c(C)c2c(=O)[nH]1 | 4.61 µM [rising, single point] |  | 
O=c1cc(-c2ccc([N+](=O)[O-])cc2)c2ccc(O)cc2o1 | 0.00517 µM [falling, full curve, poor fit] |  | 
COc1ccc(CNC(=O)C[C@H]2C(=O)N(Cc3ccc(OC)cc3)C[C@@H]2Cc2ccccc2)cc1 |  | 6.51 µM [rising, single point] | -6.89%
O=C(NNS(=O)(=O)c1ccc(F)cc1)c1ccccc1 |  | 29.1 µM [rising, partial curve, poor fit] | -6.3%
O=C(CSc1nnc(-c2ccncc2)n1C1CCCCC1)Nc1ccccc1 | 0.13 µM [rising, full curve, poor fit] | 0.13 µM [rising, full curve, poor fit] | 33.1%
c1ccc(-c2nnc(CSc3nnc(-c4cccs4)o3)o2)cc1 |  | 3.66 µM [rising, partial curve] | 2.84%
Cc1scc(C(=O)N/N=C/c2ccc(OCC(C)C)cc2)c1C | 1.64 µM [rising, partial curve] | 2.06 µM [rising, partial curve] | 
O=c1cc(O)n(Cc2ccc(F)cc2)c(=O)[nH]1 |  | 6.51 µM [rising, single point] | 

SMILES | AC50 [1] | AC50 [2] | cell number change
O=C(COC(=O)c1cc(S(=O)(=O)N2CCOCC2)c(Cl)cc1Cl)c1ccc[nH]1 |  |  | -13.3%
Cc1cc(/C=N/NC(N)=O)c(C)n1C1CCCCC1 |  |  | 91.4%
CCOC(=O)/C(=N\Nc1ccc(Cl)cc1)c1csc(Nc2ccccc2)n1 |  | 29.1 µM [falling, single point] | -93%
CC1C(=O)N2CCCc3cc(S(=O)(=O)NCc4ccccc4Cl)cc1c32 (configuration not stated) |  | 29.1 µM [falling, single point] | -12.5%
O=C(C1CCN(S(=O)(=O)c2ccccc2)CC1)N1CCCCCC1 | 0.116 µM [rising, full curve, poor fit] |  | -0.578%
C#C[C@]1(O)CC[C@H]2[C@@H]3CCc4cc(O)ccc4[C@H]3CC[C@@]21C |  | 5.8 µM [rising, partial curve] | 0.211%
CCCCN(CCCC)CCC(O)c1cc2c(Cl)cc(Cl)cc2c2cc(C(F)(F)F)ccc12 (configuration not stated) | 29.1 µM [falling, single point] |  | -80.5%
COc1ccc(OCc2nnc(SCC(=O)N3CCOCC3)o2)cc1 | 11.6 µM [falling, partial curve] | 14.6 µM [falling, partial curve] | -44.6%
COc1ccc(-c2cn3cccnc3n2)cc1NC(=O)c1ccc(Br)o1 | 0.00651 µM [rising, full curve, poor fit] | 29.1 µM [rising, partial curve] | 47.1%
CC(C)CN(C(=O)c1cccc(F)c1)c1c(N)n(CC(C)C)c(=O)[nH]c1=O |  | 6.51 µM [rising, partial curve, poor fit] | -5.04%
CC(C)CC(NC(=O)OC(C)(C)C)c1cn([C@@H](CCC(=O)OC(C)(C)C)C(=O)N2CCN(C(=O)OC(C)(C)C)CC2)nn1 (some centres not stated) | 0.411 µM [falling, full curve, poor fit] | 1.16 µM [falling, full curve, poor fit] | -32.2%
COc1ccccc1OCC(=O)Nc1c2c(nn1-c1ccc(F)cc1)CS(=O)(=O)C2 |  | 29.1 µM [falling, single point] | -19%
COc1ccc(-n2cnc3cc(C(=O)NC4CCCC4)ccc32)cc1 | 6.51 µM [falling, single point] | 0.82 µM [falling, full curve] | -3.28%
Cc1ccc(-c2nnc(SCC(=O)N3CCOCC3)nc2-c2ccc(C)cc2)cc1 |  | 18.4 µM [falling, single point] | -17.5%
Cc1nn(C)c(C)c1S(=O)(=O)N1CCc2ccccc21 |  | 16.4 µM [rising, partial curve, poor fit] | 14.4%
O=C(CCC(=O)N1CCN(C(=O)c2ccco2)CC1)c1ccc(F)cc1 | 6.51 µM [rising, single point] | 5.17 µM [rising, single point] | 
Cc1ccc(F)cc1NC(=O)c1cccc2nccnc12 | 0.116 µM [rising, full curve] | 0.92 µM [rising, partial curve] | 
CCOCCCNC(=S)N1CCCN(c2nc3cc(C)c(C)cc3cc2C#N)CC1 |  | 29.1 µM [falling, single point] | -16.6%
COc1ccc(Nc2nc(N)nc(SCc3nnc(C)s3)n2)cc1 |  | 4.61 µM [rising, partial curve] | 10.1%
COc1cc(OC)c(OC)cc1CNC(=O)c1cc(=O)c2ccccc2o1 |  |  | 8.47%

4 structures already listed, arranged by number of heavy atoms, descending:
SMILES | AC50 [1] | AC50 [2] | cell number change
CC(C)CC(NC(=O)OC(C)(C)C)c1cn([C@@H](CCC(=O)OC(C)(C)C)C(=O)N2CCN(C(=O)OC(C)(C)C)CC2)nn1 (some centres not stated) | 0.411 µM [falling, full curve, poor fit] | 1.16 µM [falling, full curve, poor fit] | -32.2%
CCCCN(CCCC)CCC(O)c1cc2c(Cl)cc(Cl)cc2c2cc(C(F)(F)F)ccc12 (configuration not stated) | 29.1 µM [falling, single point] |  | -80.5%
Cc1ccc(-c2nnc(SCC(=O)N3CCOCC3)nc2-c2ccc(C)cc2)cc1 |  | 18.4 µM [falling, single point] | -17.5%
COc1ccc(Nc2nc(N)nc(SCc3nnc(C)s3)n2)cc1 |  | 4.61 µM [rising, partial curve] | 10.1%

(listing goes on)

SMILES | AC50 [1] | AC50 [2] | cell number change
O=C(/C=C/c1ccccc1)Nc1scc(-c2ccccc2)c1C(=O)O |  | 0.164 µM [falling, single point] | 0.352%
Cc1ccc(Cl)cc1N1CCN(C(=O)Cc2c(C(=O)O)[nH]c3ccccc23)CC1 |  | 0.092 µM [falling, full curve, poor fit] | -3.17%
CCN(CC)C(=O)CC(c1ccc2c(c1)OCO2)c1c(O)cc(OC)cc1OC (configuration not stated) |  | 6.51 µM [rising, partial curve, poor fit] | 14.6%
O=C(CCN1CCN(c2ccccc2)CC1)NNC(=O)Cc1ccc(Br)cc1 | 32.6 µM [falling, partial curve, poor fit] |  | -30.9%
Cc1ccc(S(=O)(=O)Nc2nc3ccccc3s2)cc1[N+](=O)[O-] |  | 0.164 µM [rising, full curve, poor fit] | 4.95%
CCOC(=O)c1ccc(NC(=S)NN2CCOCC2)cc1 |  |  | 8.48%
Cc1nn(C)cc1/C=N\NC(=O)c1ccc2c(c1)c(C)c(C)n2Cc1ccccc1 | 0.326 µM [rising, full curve] | 1.03 µM [rising, full curve] | 96.4%
CCOc1ccc(CCNC(=O)C2(c3ccccc3)CC2)cc1OCC |  | 29.1 µM [rising, single point] | 35.7%
CCS(=O)(=O)c1ccc(C(=O)NC)c(Cl)c1Cl | 7.31 µM [falling, single point] |  | -38.5%
S=C1Nc2ccccc2Sc2ccc(Cl)cc21 | 3.66 µM [falling, partial curve, poor fit] |  | 
O=C(Nc1cc(Cl)ccc1N1CCOCC1)c1cccnc1 |  |  | -11.5%
COC(=O)[C@H](C)NC(=O)Nc1cc(Cl)ccc1C |  | 4.11 µM [rising, single point] | -6.43%
COc1ccc(CNC(=O)CCn2c(=O)c3cccn3c3ccc(F)cc32)cc1 |  | 5.17 µM [falling, partial curve] | 
Oc1cccc(/C=N/Nc2cccc3cccnc23)c1 |  | 0.731 µM [falling, full curve, poor fit] | -13.9%
CCc1ccc(-c2nn(-c3ccccc3)cc2C2SCC(=O)N2Cc2ccco2)cc1 (configuration not stated) |  | 6.51 µM [falling, single point] | 2.43%
Cc1c(CCO)c(=O)n(-c2ccccc2)n1S(=O)(=O)c1ccc([N+](=O)[O-])cc1 | 6.51 µM [rising, single point] | 4.11 µM [rising, partial curve, poor fit] | -2.62%
CCOCCCNCc1cccc(OCc2ccc(F)cc2)c1 |  | 16.4 µM [rising, partial curve] | 18.3%
CCOC(=O)c1cc(-c2cccs2)nn1CCC#N |  | 0.13 µM [falling, full curve, poor fit] | 
